# Reference: PubChem BioAssay AID493014 (National Center for Advancing Translational Sciences (NCATS), 2011)
# The other results are listed elsewhere or left out. These are further read-outs of the screen, such as a control signal, another cell line or another target. No call is given for them. Most of these compounds were active or inconclusive in the main read-out, so they are no random draw. Potencies come from curve fits of mixed quality, noted in brackets.
# Assay: qHTS Assay to Find Inhibitors of Chronic Active B-Cell Receptor Signaling
# Conditions: ABC-DLBCL IkBa-CBG/CBR reporter, luminescence ratio (green luciferase fused to IkBa over red control in TMD8 lymphoma cells), 4 h
# How it was run: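 Cell line TMD8 (human ABC DLBCL), stably expressing tet-inducible CBG68-IkBa fusion and CBR; IMDM/0.5% FBS; cpd up to 46 uM; dox induction, 4 h, 37C/5% CO2; dual luminescence; green/red ratio; MG132 control.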
# [1] = measured here: CBR red luminescence, cell number
# [2] = measured here: IkBa-CBG green luminescence
Compound,AC50 [1],AC50 [2]
CCCCNC(=O)C1CCCN1C(=O)Nc1cccc(OC)c1 (stereo not drawn),"2.82 µM [rising, single point]",
O=C(Nc1nc2ccccc2s1)C1CC(=O)N(c2ccc(Cl)cc2)C1 (stereo not drawn),"13 µM [falling, single point]",
COc1ccc(CCNC(=O)C2CCN(S(=O)(=O)N3CC(C)CC(C)C3)CC2)cc1OC (stereo not drawn),"2 µM [rising, full curve, poor fit]",
CCCS(=O)(=O)c1nnnn1-c1cccc(OC)c1,"3.66 µM [falling, full curve]",
Cc1ccc(Cl)c(OCC(=O)NN2CCN(C)CC2)c1,"7.94 µM [rising, partial curve, poor fit]",
Cc1ccc(CNC(=O)CN2CCN(Cc3ccc(C)cc3)C2=O)cc1,"0.651 µM [falling, full curve, poor fit]",
O=C(CC1N=C2c3ccccc3N=C(SCc3cccc(Cl)c3)N2C1=O)NCCc1ccccc1 (stereo not drawn),"15.8 µM [falling, single point]",
Cc1ccc(C)c(OCCn2cc(/C=C(\C#N)C(=O)NCC3CCCO3)c3ccccc32)c1 (stereo not drawn),"0.58 µM [rising, full curve, poor fit]",
COc1cc(/C=C2\SC(N3CCc4ccccc4C3)=NC2=O)cc(OC)c1OC,"0.651 µM [rising, full curve, poor fit]",
CCOc1ccc(/C=N/NC(=S)NC2CC3CC2C2C=CCC32)cc1 (stereo not drawn),"35.5 µM [rising, single point]",
Cc1ncc(CO)c(/C=N/NC(=O)c2cc(O)c(O)c(O)c2)c1O,"11.2 µM [falling, partial curve, poor fit]",
Cc1c(NC(=O)CSCc2c(F)cccc2Cl)c(=O)n(-c2ccccc2)n1C,"22.4 µM [rising, single point]",
COc1cc(OC)cc(C(=O)NC(C(=O)NCCc2ccccn2)C(C)C)c1 (stereo not drawn),"29.1 µM [rising, partial curve, poor fit]",
O=C(OCC(=O)N1CCOCC1)c1c(Cl)ccc(Cl)c1Cl,"20 µM [rising, partial curve, poor fit]",
CCCCN(C)CCNC(=O)CN1C(=O)CSc2ccc(S(=O)(=O)N3CCCCC3)cc21,"12.6 µM [falling, single point]",
COc1ccccc1-c1nnc(NC(=O)c2ccc(S(=O)(=O)N3CCCC3)cc2)o1,"11.2 µM [falling, partial curve, poor fit]",
C[C@]12c3[nH]c4cc(-c5ccco5)ccc4c3CCN1C(=O)[C@@H](CC(=O)NCCC1=CCCCC1)C[C@@H]2C(=O)N1CCCCC1,"18.4 µM [falling, single point]",
CC(Oc1ccc(F)cc1)C(=O)Nc1nc(-c2ccccn2)cs1 (stereo not drawn),"18.4 µM [rising, single point]","18.4 µM [falling, partial curve, poor fit]"
O=c1ncn(-c2ccc(F)cc2)c2ncccc12,"11.6 µM [rising, partial curve, poor fit]",
CCn1c(SCC(=O)N2CCCCC2)nc2c(c1=O)SCC2,"7.08 µM [falling, partial curve]",

# A section taken from the entries so far:
Compound,AC50 [1],AC50 [2]
O=C(Nc1nc2ccccc2s1)C1CC(=O)N(c2ccc(Cl)cc2)C1 (stereo not drawn),"13 µM [falling, single point]",
COc1ccc(CCNC(=O)C2CCN(S(=O)(=O)N3CC(C)CC(C)C3)CC2)cc1OC (stereo not drawn),"2 µM [rising, full curve, poor fit]",
CCCS(=O)(=O)c1nnnn1-c1cccc(OC)c1,"3.66 µM [falling, full curve]",
Cc1ccc(Cl)c(OCC(=O)NN2CCN(C)CC2)c1,"7.94 µM [rising, partial curve, poor fit]",
Cc1ccc(CNC(=O)CN2CCN(Cc3ccc(C)cc3)C2=O)cc1,"0.651 µM [falling, full curve, poor fit]",
O=C(CC1N=C2c3ccccc3N=C(SCc3cccc(Cl)c3)N2C1=O)NCCc1ccccc1 (stereo not drawn),"15.8 µM [falling, single point]",
Cc1ccc(C)c(OCCn2cc(/C=C(\C#N)C(=O)NCC3CCCO3)c3ccccc32)c1 (stereo not drawn),"0.58 µM [rising, full curve, poor fit]",
COc1cc(/C=C2\SC(N3CCc4ccccc4C3)=NC2=O)cc(OC)c1OC,"0.651 µM [rising, full curve, poor fit]",
CCOc1ccc(/C=N/NC(=S)NC2CC3CC2C2C=CCC32)cc1 (stereo not drawn),"35.5 µM [rising, single point]",
Cc1ncc(CO)c(/C=N/NC(=O)c2cc(O)c(O)c(O)c2)c1O,"11.2 µM [falling, partial curve, poor fit]",

# Next part:

Compound,AC50 [1],AC50 [2]
CC(NC(=O)Cc1cccc(C(F)(F)F)c1)c1ccc(F)cc1 (stereo not drawn),"35.5 µM [falling, single point]",
COc1cccc(C(=O)Nc2ccc3ccccc3c2)c1,"14.1 µM [falling, partial curve, poor fit]",
CCOC(=O)c1cc(-c2ccccc2)nn1CC1CC(c2ccc(OC)cc2)=NO1 (stereo not drawn),"25.9 µM [rising, single point]",
c1ccc(-c2noc(COc3ccc4c(c3)OCO4)n2)cc1,"1.84 µM [falling, partial curve, poor fit]",
CC(=C\c1ccccc1)/C=C1/SC(=S)N(CCC(=O)Nc2ccccn2)C1=O,"3.98 µM [falling, partial curve, poor fit]",
CCCNC1=C(N(C(C)=O)c2cccc(F)c2)C(=O)c2ccccc2C1=O,"23.1 µM [falling, single point]",
CC1CCc2sc(C(=O)Nc3ccc(N4CCOCC4)cc3)cc2C1 (stereo not drawn),"0.447 µM [rising, full curve]",
C[C@H](CO)N1C[C@H](C)[C@H](CN(C)S(=O)(=O)c2cn(C)cn2)Oc2ccc(NC(=O)Nc3ccc(C(F)(F)F)cc3)cc2CC1=O,"20.6 µM [rising, partial curve]","20.6 µM [falling, single point]"
O=C(NC1CCCCC1)C(c1ccc(F)cc1)N(C(=O)c1csnn1)C1CCCC1 (stereo not drawn),"17.8 µM [falling, partial curve, poor fit]",
CC(NS(=O)(=O)c1ccccc1)C(c1cccs1)N1CCN(c2ccccc2)CC1 (stereo not drawn),"23.1 µM [falling, partial curve, poor fit]",
CCOC(=O)c1[nH]c(C)c(C(=O)c2cc(F)ccc2F)c1C,,"20.6 µM [falling, partial curve]"
CCOC(=O)C1CCN(C(=O)c2cc(C)n(C(C)(C)C)n2)CC1,"17.8 µM [rising, single point]",
O=C(NCc1ccc2c(c1)OCO2)C1CCCN1C(=O)Nc1cccc(Cl)c1 (stereo not drawn),"6.51 µM [rising, single point]",
Brc1cc2c(cc1/C=N/Nc1nc(N3CCOCC3)nc(N3CCOCC3)n1)OCO2,"0.651 µM [rising, full curve, poor fit]",
CC(=O)N(C1=C(Cl)C(=O)c2ccccc2C1=O)c1ccc(C(=O)O)cc1,"35.5 µM [falling, single point]",
CC(=O)Oc1cc(C)cc2oc(=O)cc(-c3ccccc3)c12,,"11.2 µM [falling, partial curve, poor fit]"
Cc1ccc(C2=NN(C(=S)Nc3ccccc3)C(c3ccco3)C2)cc1 (stereo not drawn),"1.12 µM [falling, full curve, poor fit]",
Cc1ccc(S(=O)(=O)/N=C2/C=C(Sc3ncn[nH]3)C(=O)c3ccccc32)c(C)c1,"3.26 µM [falling, partial curve, poor fit]",
CCN(CC)S(=O)(=O)c1cccc(C(=O)N/N=C/c2ccc([N+](=O)[O-])o2)c1,"14.1 µM [falling, single point]",
CSc1cccc(NC(=S)N(CCCN2CCCC(C)C2)Cc2cccs2)c1 (stereo not drawn),"7.94 µM [falling, partial curve]",

Compound,AC50 [1],AC50 [2]
CCOc1ncccc1C(=O)Nc1ccc(OC)c(S(=O)(=O)N2CCCCC2)c1,"0.398 µM [falling, full curve, poor fit]",
CC(CC(=O)C1C(C)C=CCC1(C)C)NNC(N)=O (stereo not drawn),"15.8 µM [rising, partial curve, poor fit]",
O=C(Cc1noc2ccccc12)Nc1ccc(Cl)cc1,"6.51 µM [rising, single point]",
COc1cc(OC)c(C(=O)Nc2cccc(C(C)=O)c2)cc1OC,"2.59 µM [rising, single point]",
COc1ccc(CN(C)S(=O)(=O)c2nnc(NC(=O)c3ccc(C)cc3)s2)cc1OC,"25.1 µM [rising, single point]",
CN(C)CC(C)(C)CNS(=O)(=O)c1cccc2nsnc12,"11.6 µM [rising, partial curve, poor fit]",
O=C(Cn1ncn2c(cc3ccccc32)c1=O)NCCc1cccs1,"1.78 µM [rising, partial curve, poor fit]",
NNc1nc2c(-c3cccc(C(F)(F)F)c3)nnn2c2ccccc12,"22.4 µM [falling, single point]",
CC[C@@H]1C=C(C)C[C@H](C)C[C@H](OC)[C@H]2O[C@@](O)(C(=O)C(=O)N3CCCC[C@H]3C(=O)O[C@H](/C(C)=C/[C@@H]3CC[C@@H](O)[C@H](OC)C3)[C@H](C)[C@@H](O)CC1=O)[C@H](C)C[C@@H]2OC,"29.1 µM [falling, single point]",
Cc1ccc(S(=O)(=O)NC(=O)c2ccccc2)cc1C(C)C,"1.12 µM [rising, partial curve, poor fit]",
COc1cc(NC(C)CCc2ccccc2)cc(OC)c1OC (stereo not drawn),"14.1 µM [rising, partial curve, poor fit]",
Cc1cc(-c2nnnn2-c2cc(Cl)cc(Cl)c2)no1,"1.58 µM [rising, full curve, poor fit]",
CCN(CC)C(=O)CSCc1cnn(-c2ccccc2)c1-n1cccc1,"16.4 µM [falling, partial curve, poor fit]","7.31 µM [rising, partial curve, poor fit]"
Cc1ccc(Cn2ncc3c(NN)ncnc32)cc1,"35.5 µM [falling, single point]",
CCOC(=O)C1=C(C)NC(C)=C(C(=O)OCC)C1C(=O)OCC(=O)NC(C)c1ccccc1 (stereo not drawn),"2.06 µM [rising, full curve, poor fit]",
COc1ccc(C2=NN(C(=O)c3cccnc3)C(c3ccccc3)C2)cc1 (stereo not drawn),"16.4 µM [rising, partial curve, poor fit]",
COCCn1c(C)cc(C(=O)COC(=O)c2n[nH]c3ccccc23)c1C,"8.2 µM [falling, partial curve]",
CN(Cc1ccccc1)S(=O)(=O)c1ccc(N2CCCC2=O)cc1,"29.1 µM [rising, single point]",
O=C(CNC(=O)c1ccc(Br)cc1)N/N=C/c1cccnc1,"11.2 µM [rising, partial curve, poor fit]",
CCCn1c(N)c(C(=O)CN(C)CC(=O)Nc2ccccc2C(F)(F)F)c(=O)[nH]c1=O,"23.1 µM [rising, single point]",
